Laboratory results taken from PubChem BioAssay AID2685 (National Center for Advancing Translational Sciences (NCATS), 2010).
The list shows a part of the results. Shown are side measurements of this screen, not its main read-out; they come without a call. Compounds called inactive in the main read-out are mostly missing here. Potencies come from curve fits of mixed quality, noted in brackets.

Assay: qHTS Assay for Lipid Storage Modulators in Drosophila S3 Cells;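 on cell number change: cells counted by Cell Tracker Red CMTPX staining in the red channel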
Details: BODIPY lipid droplet fluorescence, 18-24 h; for cell number change: measured here: cell count max response, cells fed with added oleic acid
Outline: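 Drosophila S3 cells loaded with oleic acid (400 uM, as added) and compounds at several concentrations; lipid droplets imaged by 488-nm laser-scanning cytometry, 500–530 nm intensity and object ratio to cell channel. Percent activity normalized to 20 uM Triacsin C.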

[1] = measured here: lipid fluorescence (Fed channel) AC50, cells fed with added oleic acid
[2] = measured here: cell number channel AC50, cells fed with added oleic acid

SMILES | cell number change [%] | AC50 [1] | AC50 [2]
O=C(CSC1=NS(=O)(=O)c2ccccc2N1)NCc1ccc(F)cc1 | -12.5 | 0.461 µM [falling, full curve, poor fit] | –
CNC(=O)COC(=O)c1cc(-c2ccccc2)nn1-c1ccccc1 | 8.55 | 6.51 µM [falling, single point] | 2.31 µM [falling, partial curve]
CC(=O)Nc1ccccc1-c1nc2ccccc2nc1OCC(=O)c1ccc2ccccc2c1 | -13 | 6.51 µM [rising, single point] | –
CCN(c1ccccc1)S(=O)(=O)c1ccc2c(c1)N(C(C)=O)CCS2 | 7.09 | – | –
CCn1c(Sc2ccc(N)cc2Cl)nc2ccccc21 | -5.88 | 1.16 µM [rising, partial curve] | –
O=[N+]([O-])c1ccc(O)c(/C=N/NC2=NS(=O)(=O)c3ccccc32)c1 | – | 6.51 µM [rising, partial curve] | –
O=S(=O)(c1cccc2cccnc12)N1CCCc2ccccc21 | 19.2 | 0.116 µM [rising, full curve, poor fit] | –
CCOc1ccc2oc(C(=O)OCC(=O)N3C(C)CCCC3C)c(C)c2c1 (centres undefined) | -44.9 | 1.3 µM [falling, full curve] | 11.6 µM [falling, partial curve]
Cn1c(CNc2nc3ccccc3n2CCN2CCCCC2)nc2ccccc21 | -8.31 | 2.59 µM [rising, single point] | –
COc1ccccc1-c1c(C(F)(F)F)oc2cc(OS(C)(=O)=O)ccc2c1=O | -15.2 | – | –
CC(Cc1ccsc1)NC(=O)CCc1nnc(CCc2ccccc2)o1 (centres undefined) | -42.9 | 16.4 µM [falling, partial curve] | 5.8 µM [falling, full curve, poor fit]
O=C(COC(=O)c1ccc(OC(F)(F)F)cc1)NCCN1C(=O)CSC1=O | -48.6 | 0.651 µM [falling, full curve] | 0.651 µM [falling, full curve]
CCOC(=O)N1CCN(c2ncnc3c2oc2nc(C(C)C)c4c(c23)CCC4)CC1 | 20.1 | 0.82 µM [falling, full curve] | –
C=C(C)CSc1nnc2n(Cc3ccccc3)c(=O)c3c4c(sc3n12)CCC4 | 18.9 | – | –
COc1ccc([C@H]2CC(=O)C=C(c3ccc(NC(C)=O)cc3)C2)cc1OC | -4.59 | 1.3 µM [falling, partial curve, poor fit] | 0.164 µM [falling, partial curve]
O=C(/C=C/c1ccc([N+](=O)[O-])o1)NNC(=O)c1ccc(F)cc1 | -41.8 | 1.3 µM [falling, full curve] | 1.16 µM [falling, full curve]
CN(C)S(=O)(=O)N(CC(=O)N1CCC(Cc2ccccc2)CC1)c1ccccc1 | -31.5 | 0.651 µM [rising, single point] | 32.6 µM [falling, single point]
CC(=O)CCCC(NS(=O)(=O)CCC(Cl)(Cl)Cl)c1ccccc1 (centres undefined) | 23.6 | 29.1 µM [rising, single point] | –
O=C(NC(=S)NCc1ccco1)c1ccc(Br)cc1 | 30.2 | 8.2 µM [rising, partial curve] | 0.092 µM [rising, full curve]
COc1ccc(S(=O)(=O)N/N=C\c2ccc([N+](=O)[O-])o2)c(OC)c1 | – | 29.1 µM [falling, single point] | –

SMILES | cell number change [%] | AC50 [1] | AC50 [2]
Cc1cccc2c(CC(=O)O)noc12 | 50 | 11.6 µM [rising, partial curve, poor fit] | 16.4 µM [rising, single point]
COc1cc(CCC(=O)OCC(=O)Nc2ccc(C)cc2Br)cc(OC)c1OC | -10.5 | – | 7.31 µM [falling, single point]
O=C(CSc1nccc(=O)[nH]1)Nc1ccc(Br)c(Cl)c1 | -4.68 | – | 0.326 µM [falling, partial curve]
CCOc1ccc(S(=O)(=O)NC(C)C(=O)NC2CCCC2)cc1 (centres undefined) | -14.7 | 2.06 µM [rising, partial curve] | –
CCCCNC(=O)Nc1cc(C(=O)OC)ccc1Cl | 5.19 | 29.1 µM [rising, single point] | –
Cc1ccc(OC(=O)C2CSC3(C)CCC(=O)N23)c(Br)c1 (centres undefined) | -21.3 | – | 0.13 µM [falling, full curve]
O=S(=O)(c1ccccc1)C1CON(Cc2ccccc2)C1c1ccccc1 (centres undefined) | 7.19 | 6.51 µM [falling, single point] | –
CC(=O)Nc1ccc(C(=O)Nc2ccc(S(=O)(=O)N3CCOCC3)cc2)cc1 | – | 1.84 µM [rising, partial curve, poor fit] | –
O=C(CN1C(=O)NC2(CCOc3ccccc32)C1=O)Nc1ccc(Br)cc1F (centres undefined) | -1.47 | 3.26 µM [rising, single point] | –
NC(=S)Cc1ccccc1Cl | 10.8 | 6.51 µM [falling, single point] | –
O=c1[nH]c2ccc(NS(=O)(=O)c3ccc4ccccc4c3)cc2[nH]1 | 9.27 | – | –
CC(C)Oc1ccc(Nc2ncnc3ccccc23)cc1 | -41.5 | – | 29.1 µM [falling, single point]
O=C(Nc1ccc([N+](=O)[O-])cn1)c1cc(-c2cccc(Br)c2)nc2ccccc12 | -53.2 | 23.1 µM [rising, partial curve] | 18.4 µM [falling, single point]
Cc1[nH]c2ccccc2c1Cc1nnc(SCc2ccccc2)o1 | – | – | 3.66 µM [rising, single point]
CCSc1nnc(NC(=O)CC)s1 | 8.1 | 0.13 µM [rising, full curve, poor fit] | –
O=C(Nc1ccccc1Cl)C1CCN(S(=O)(=O)c2cccc3nonc23)CC1 | -87.4 | – | 29.1 µM [falling, single point]
COc1ccc(NS(=O)(=O)c2cccc(C(=O)NCCCn3ccnc3)c2)cc1 | 69 | – | –
CC1(C)Cc2c(sc3nc(-c4cccs4)n(N)c(=O)c23)CO1 | -31.8 | 20.6 µM [falling, partial curve] | 29.1 µM [falling, single point]
CN(CCC1CCOCC1)C(=O)CC1C(=O)NCCN1Cc1cccc(F)c1 (centres undefined) | -2.45 | 0.0651 µM [rising, full curve, poor fit] | –
N#Cc1cnn2c(-c3cccc([N+](=O)[O-])c3)ccnc12 | 22 | 32.6 µM [rising, single point] | –

SMILES | cell number change [%] | AC50 [1] | AC50 [2]
Cc1noc(C)c1COc1cccc(C(=O)NCc2cccc(Cl)c2)c1 | -6.56 | – | –
Cc1nn(-c2cccc(Cl)c2)c2nc(-c3ccncc3)cc(C(=O)N3CCOCC3)c12 | 36.1 | 0.116 µM [rising, full curve, poor fit] | 32.6 µM [rising, single point]
Cc1ccc2c(c1)NC(=O)C(CC(=O)NCCCN1CCc3ccccc3C1)O2 (centres undefined) | 19.2 | 1.3 µM [rising, full curve, poor fit] | –
Clc1ccc2nc(-c3cccc(SC4CCCCC4)c3)c(NCc3ccccc3)n2c1 | 17 | – | –
CCn1c(C)nc2cc(-c3nnc(-c4c(-c5ccccc5)noc4C)o3)ccc21 | -35.5 | 14.6 µM [falling, partial curve] | 10.3 µM [falling, partial curve, poor fit]
N#C/C(=C/c1ccncc1)c1nc2ccccc2s1 | -39.9 | 23.1 µM [falling, single point] | 18.4 µM [falling, single point]
CCN(CC)CCCN1C(=O)C(O)=C(C(=O)c2sc(C)nc2C)C1c1ccco1 (centres undefined) | 9.34 | 0.0259 µM [falling, full curve] | –
Cc1cc(O)c(/C=N/Nc2ccc(Cl)cc2)c(=O)o1 | -1.86 | 2.31 µM [falling, partial curve, poor fit] | –
COc1ccc(N2CCN(C(=O)CN(c3ccccc3)S(C)(=O)=O)CC2)cc1 | -8.93 | – | –
O=c1[nH]c(SCc2ccccc2)nc2c1sc1ccccc12 | 11.3 | 3.66 µM [rising, single point] | –
Cc1cc(=O)n(CNC(=O)c2ccccc2)c(=S)[nH]1 | 0.441 | 0.58 µM [falling, single point] | –
CSc1cccc(NC(=O)CN(C)S(=O)(=O)c2ccc(C)cc2)c1 | -10.9 | – | –
Cc1ccc(NC(=O)c2ccc(NCC3CCCO3)c([N+](=O)[O-])c2)cc1Cl (centres undefined) | 3.97 | – | –
Cc1ccc([N+](=O)[O-])cc1N=Nc1c(-c2ccc([N+](=O)[O-])cc2)[nH]n(C(N)=S)c1=O | -16.8 | 0.651 µM [falling, full curve, poor fit] | –
Cc1cc(C)cc(C(=O)NC(=S)Nc2ccc(Cc3ccncc3)cc2)c1 | -0.321 | 20.6 µM [rising, single point] | –
Cc1ccnn2c(-c3ccccc3)c3c(=O)n(C)c(=O)n(C)c3c12 | 4.97 | 0.326 µM [rising, partial curve] | –
COC(c1ccccc1)c1nnc(CCC(=O)NCc2cccc(-n3cccn3)c2)o1 (centres undefined) | -52.3 | 6.51 µM [falling, partial curve] | 8.2 µM [falling, partial curve]
Brc1ccc(N=Cc2ccccn2)cc1 | -3.62 | 20.6 µM [falling, single point] | –
CN1C2CCC1/C(=C/c1cccn1C)C(=O)/C2=C\c1cccn1C | -49.1 | 29.1 µM [rising, single point] | –

Reformatted: results already given.
SMILES	cell number change [%]	AC50 [1]	AC50 [2]
Cc1cc(O)c(/C=N/Nc2ccc(Cl)cc2)c(=O)o1	-1.86	2.31 µM [falling, partial curve, poor fit]	–
COc1ccc(N2CCN(C(=O)CN(c3ccccc3)S(C)(=O)=O)CC2)cc1	-8.93	–	–
